Laboratory results from PubChem BioAssay AID1259415 (National Center for Advancing Translational Sciences (NCATS), 2018).
About 18,000 (4.4%) of roughly 410,000 compounds were called active. Inconclusive means that the source gave no clear call. Such entries were picked first, then a sample of the others. Rule as the data show it: active = activity change below about -60%; inconclusive = no clear call, values can overlap the other calls; inactive = above about -39%.

assay: qHTS Assay for inhibitors of the human cytomegalovirus (HCMV); settings: HFF cells, HCMV-luciferase reporter, 72 h; at 57.5 µM; stronger effect = lower value
Method in brief: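 Two compound doses tested in HFFs infected with HCMV-luciferase, MOI 1 PFU/cell, 72 h at 37C. Lysate luminescence read with OneGlo; data normalized against buffer-only and 10uM Salinomycin inhibitor controls.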
% is scaled to controls: 0 for no effect and ±100 for the full control effect.

Compound	activity change, negative = inhibition
O=C(CCNC(=O)c1ccc(Cl)cc1)NCC(c1ccco1)N1CCCC1 (centres undefined)	inactive: -20.8%
O=C(Nc1nnc(-c2ccc3c(c2)CCCC3)o1)c1ccc(Cl)cc1Cl	inactive: 31.1%
CCOC(=O)/C(=N/Nc1ccc(OC)cc1)N1CCCc2ccccc21	inconclusive: -52.1%
COc1ccc(OCc2n[nH]c(=S)o2)cc1	inconclusive: -50.8%
COc1cccc(C(=O)NC(=O)Nc2ccc(-n3nc(C(F)(F)F)cc3C(F)(F)F)cc2)c1	inactive: -6.48%
COc1ccc(C2(C)NC(=O)N(CC3CCCCC3)C2=O)cc1 (centres undefined)	inactive: -18.1%
O=C(CSc1ccccn1)Nc1ccc2c(c1)OCCO2	inactive: 127%
O=[N+]([O-])c1ccc(CSc2nnc(SCc3ccccc3)s2)cc1	inconclusive: -43.5%
O=c1c2ccccc2nc(/C=C/c2ccc(O)cc2)n1CCc1ccccc1	inconclusive: -53%
COC(=O)c1cc(C(=O)OC)n(Cc2ccc(F)cc2)c1C	inactive: 15.2%
COc1ccc(C2=NS(=O)(=O)N(C)C(C(=O)Nc3ccc(F)cc3F)=C2)cc1	inconclusive: -47.9%
COCCN(C(=O)c1ccc2c(c1)S(=O)(=O)N=C1CCCCCN12)c1c(N)n(CC(C)C)c(=O)[nH]c1=O	inconclusive: 0%
Cc1occc1C(=O)NNC(=O)c1ccc(S(=O)(=O)N(C)C)cc1	inconclusive: -46.4%
Cc1nc2nc(NC(=O)c3ccc(F)cc3)[nH]n2c(=O)c1Cc1ccccc1	inactive: 3.42%
CN1CC(C(=O)c2ccc([N+](=O)[O-])cc2)C(c2ccc(Cl)cc2)C1 (centres undefined)	active: -64.2%
O=C(N/N=C/c1ccncc1)c1cccc(NC(=O)c2ccc(Cl)cc2)c1	inconclusive: -54.4%
CC(=O)c1ccc(N2CCN(S(=O)(=O)c3ccc4c(c3)NC(=O)CC(=O)N4)CC2)cc1	inactive: 23.5%
CCOc1ccccc1N(C(=O)c1snc(C(N)=O)c1N)C(C(=O)NCc1ccccc1)c1ccc(O)cc1 (centres undefined)	inactive: -29.9%
Cc1ccc(S(=O)(=O)c2nc(NCCN(C)C)sc2Cl)cc1	inconclusive: -40.9%
Clc1ccc(CNC2CN3CCC2CC3)cc1 (centres undefined)	inconclusive: -47%
COc1ccc(NC(=O)C2CCCN(S(=O)(=O)c3ccc(Cl)cc3)C2)cc1 (centres undefined)	inconclusive: -55.9%

Compound	activity change, negative = inhibition
CCOC(=O)[C@]12Cc3cc4ccccc4cc3[C@H]1N(Cc1ccccc1)C(=O)c1cc(OC)ccc12	active: -90.6%
COC(=O)CC1=C(C(=O)OC)C(c2ccc3c(c2)OCO3)C(C#N)=C(N)O1 (centres undefined)	inconclusive: -40.4%
Cc1nn(-c2ccccc2)c(Cl)c1C1C(C#N)=C(N)OC2=C1C(=O)CC(C)(C)C2 (centres undefined)	inconclusive: -48.9%
CCCCN(C(=O)c1ccccc1Cl)C(CC(C)C)c1nc2ccccc2[nH]1 (centres undefined)	inactive: -22.4%
CCc1ccc(C=C2SC(=S)N(CCCC(=O)Nc3ccc(C(=O)O)cc3)C2=O)cc1	inconclusive: -59.3%
Cc1c(CC(=O)O)c(=O)oc2c(C)c(OCc3ccc(F)cc3F)ccc12	inconclusive: -41.8%
O=C1NC[C@H](CCCCN2C[C@H](Cc3ccc(O)cc3)N(CCc3ccccc3)C(=O)C2=O)N(Cc2ccccc2)C1=O	inactive: -21.8%
CCCN(CCC)CCCNC(=O)CC1Nc2ccccc2NC1=O (centres undefined)	inconclusive: -54.4%
O=C(Nc1ccc2c(c1)OCCO2)NC1CCCCC1	inactive: 68.5%
CCOCCc1nnc(NC(=O)C(=O)c2cc(C)n(-c3cccc(C)c3)c2C)s1	inactive: 0.28%
Cc1ccc(Nc2cc(C)nc(-n3nc(C)cc3C)n2)cc1	active: -91.8%
CCn1c(=O)n(CC)c2cc(NS(=O)(=O)c3ccccc3)ccc21	inactive: 165%
C[C@@H]1CC[C@@]2(OC1)O[C@H]1C[C@H]3[C@@H]4CC=C5C[C@@H](O)[C@H](O)C[C@]5(C)C4CC[C@]3(C)[C@H]1[C@@H]2C (some centres undefined)	active: -70.9%
COc1cc(/C=C/c2cccc[n+]2C)ccc1OCC(=O)Nc1ccccc1C	inconclusive: -50.3%
CN(C)S(=O)(=O)Oc1cccc(C(=O)Nc2ccc(Cl)c(Cl)c2)c1	inconclusive: -40.7%
COc1cccc2c1C(=O)c1c(O)c3c(c(O)c1C2=O)C[C@@](O)(C(=O)CO)C[C@@H]3O[C@H]1C[C@H](N)[C@H](O)[C@H](C)O1	active: -97.7%
COC(=O)N(NC(=O)C(O)(CCC(C)C)CCC(C)C)c1ccccc1	inconclusive: -44.1%
CC(=O)Nc1ccc(-n2nnnc2SCC(=O)Nc2cccc(NC(=O)c3ccco3)c2)cc1	inconclusive: -44.7%
CCOC(=O)c1ccc(NC(=O)c2cc3c(C)nn(-c4ccccc4Cl)c3s2)s1	inconclusive: -43.4%
COc1ccc(OC)c(/C=C/C(=O)N2C(=O)c3cccc(N)c3C2=O)c1	inconclusive: -45.4%
Cc1cc2nc(N3CCN(C(=O)c4ccco4)CC3)sc2cc1C	inactive: 15%

Reprinted from the listing, 26 compounds:
Compound	activity change, negative = inhibition
CC(=O)c1ccc(N2CCN(S(=O)(=O)c3ccc4c(c3)NC(=O)CC(=O)N4)CC2)cc1	inactive: 23.5%
CCOc1ccccc1N(C(=O)c1snc(C(N)=O)c1N)C(C(=O)NCc1ccccc1)c1ccc(O)cc1 (centres undefined)	inactive: -29.9%
Cc1ccc(S(=O)(=O)c2nc(NCCN(C)C)sc2Cl)cc1	inconclusive: -40.9%
Clc1ccc(CNC2CN3CCC2CC3)cc1 (centres undefined)	inconclusive: -47%
COc1ccc(NC(=O)C2CCCN(S(=O)(=O)c3ccc(Cl)cc3)C2)cc1 (centres undefined)	inconclusive: -55.9%
CCOC(=O)[C@]12Cc3cc4ccccc4cc3[C@H]1N(Cc1ccccc1)C(=O)c1cc(OC)ccc12	active: -90.6%
COC(=O)CC1=C(C(=O)OC)C(c2ccc3c(c2)OCO3)C(C#N)=C(N)O1 (centres undefined)	inconclusive: -40.4%
Cc1nn(-c2ccccc2)c(Cl)c1C1C(C#N)=C(N)OC2=C1C(=O)CC(C)(C)C2 (centres undefined)	inconclusive: -48.9%
CCCCN(C(=O)c1ccccc1Cl)C(CC(C)C)c1nc2ccccc2[nH]1 (centres undefined)	inactive: -22.4%
CCc1ccc(C=C2SC(=S)N(CCCC(=O)Nc3ccc(C(=O)O)cc3)C2=O)cc1	inconclusive: -59.3%
Cc1c(CC(=O)O)c(=O)oc2c(C)c(OCc3ccc(F)cc3F)ccc12	inconclusive: -41.8%
O=C1NC[C@H](CCCCN2C[C@H](Cc3ccc(O)cc3)N(CCc3ccccc3)C(=O)C2=O)N(Cc2ccccc2)C1=O	inactive: -21.8%
CCCN(CCC)CCCNC(=O)CC1Nc2ccccc2NC1=O (centres undefined)	inconclusive: -54.4%
O=C(Nc1ccc2c(c1)OCCO2)NC1CCCCC1	inactive: 68.5%
CCOCCc1nnc(NC(=O)C(=O)c2cc(C)n(-c3cccc(C)c3)c2C)s1	inactive: 0.28%
Cc1ccc(Nc2cc(C)nc(-n3nc(C)cc3C)n2)cc1	active: -91.8%
CCn1c(=O)n(CC)c2cc(NS(=O)(=O)c3ccccc3)ccc21	inactive: 165%
C[C@@H]1CC[C@@]2(OC1)O[C@H]1C[C@H]3[C@@H]4CC=C5C[C@@H](O)[C@H](O)C[C@]5(C)C4CC[C@]3(C)[C@H]1[C@@H]2C (some centres undefined)	active: -70.9%
COc1cc(/C=C/c2cccc[n+]2C)ccc1OCC(=O)Nc1ccccc1C	inconclusive: -50.3%
CN(C)S(=O)(=O)Oc1cccc(C(=O)Nc2ccc(Cl)c(Cl)c2)c1	inconclusive: -40.7%
COc1cccc2c1C(=O)c1c(O)c3c(c(O)c1C2=O)C[C@@](O)(C(=O)CO)C[C@@H]3O[C@H]1C[C@H](N)[C@H](O)[C@H](C)O1	active: -97.7%
COC(=O)N(NC(=O)C(O)(CCC(C)C)CCC(C)C)c1ccccc1	inconclusive: -44.1%
CC(=O)Nc1ccc(-n2nnnc2SCC(=O)Nc2cccc(NC(=O)c3ccco3)c2)cc1	inconclusive: -44.7%
CCOC(=O)c1ccc(NC(=O)c2cc3c(C)nn(-c4ccccc4Cl)c3s2)s1	inconclusive: -43.4%
COc1ccc(OC)c(/C=C/C(=O)N2C(=O)c3cccc(N)c3C2=O)c1	inconclusive: -45.4%
Cc1cc2nc(N3CCN(C(=O)c4ccco4)CC3)sc2cc1C	inactive: 15%

(next part)

Compound	activity change, negative = inhibition
O=[N+]([O-])c1cc2no[n+]([O-])c2cc1N1CCCCC1	active: -62.5%
CCOc1ccc(N(Cc2ccccc2)C(=O)c2nc(SCC)ncc2Cl)cc1	active: -68.2%
Cc1cccc(NC(=O)CSc2nc3ccccc3nc2N2CCC(C)CC2)c1	active: -88%
O=c1cccccc1NN=C1CCCCC1	inactive: -11.9%
COc1ccc(/C=N/NC(=O)Cc2csc(Nc3cccc(C(F)(F)F)c3)n2)cc1C	inconclusive: -41.5%
COc1cc(NC(=O)CN2CCCCC2)c(C)cc1[N+](=O)[O-]	inconclusive: -54.8%
Cc1ccc(NC(=O)Cn2c(=O)cnc3ccccc32)cc1S(=O)(=O)N(C)C	inconclusive: -43.1%
CC(C)C(=O)N1CCCC1(C)C(=O)Nc1ccc(F)cc1 (centres undefined)	inactive: -8.55%
COc1ccc(C=CC(=O)c2cc(O)ccc2O)cc1	inconclusive: -42.4%
CCCCCCNC(=O)O[C@H]1Cn2c(=O)ccc(=O)n2[C@@H]2CN(S(=O)(=O)c3ccc(C)cc3)C[C@]12O	active: -89%
CCc1ccc(C2CC(=O)c3c([nH]c(C(=O)OC4CCC(C)CC4)c3C)C2)cc1 (centres undefined)	inactive: -6.41%
CNC(=O)c1ccc2nc(CCc3ccccc3)oc2c1	inactive: 55.1%
COc1ccc(C2=NNC(=O)CC2)cc1	inconclusive: -48.3%
O=C(Nc1ccc(S(=O)(=O)Nc2nccs2)cc1)c1ccc(N2C(=O)c3ccccc3C2=O)cc1	inconclusive: -45.4%
C=C(C)C1CC=C(C)/C(=N\NC(=S)Nc2ccc(C)cc2)C1 (centres undefined)	inactive: -28%
Cn1cnnc1SCC(=O)c1cc2ccccc2o1	inconclusive: -46.7%
O=S1(=O)N[C@@H](Cc2ccccc2)COc2cc(N3CCSCC3)ccc21	inactive: 3.3%
CCCNC(=O)C(Cc1ccc(C(F)(F)F)cc1)NC(=O)c1ccc2ccccc2n1 (centres undefined)	inconclusive: -41.7%
Cc1ccc(C(=O)N2CCN(CCNC(=O)C(=O)NCc3ccc(Cl)cc3)CC2)cc1	inactive: 26.5%
COc1ccc(C2=C(c3ccccc3)OC(OC)c3cc(F)ccc32)cn1 (centres undefined)	inconclusive: -53.2%
COc1cc(NC(=O)CSc2nc(-c3cccs3)cc(C(F)(F)F)n2)cc(OC)c1OC	inactive: 13.2%

Compound	activity change, negative = inhibition
O=C(NCC1COc2ccccc2O1)c1ccc(Cl)c(S(=O)(=O)N2CCOCC2)c1 (centres undefined)	inconclusive: -48.8%
Cc1ncc([N+](=O)[O-])n1CC(=O)N/N=C/c1ccc(F)cc1	inconclusive: -41.3%
Cn1c(=O)c2c(nc(Oc3ccccc3)n2C)n(C)c1=O	inconclusive: -50.1%
Cc1ccccc1CN1CCc2nc(N3CCN(c4ncccn4)CC3)ncc2C1	inactive: -35.8%
COc1cc2c(c(OC)c1OC)-c1c(cc3c(c1O)OCO3)C[C@@H](C)[C@@H](C)C2	inconclusive: -55.1%
Cc1ccc(CNC(=O)c2ccc(CS(=O)(=O)Cc3ccc(F)cc3)o2)cc1	inactive: -5.48%
O=C(O)CSc1c(Cl)c(=O)oc2ccc(Cl)cc12	inactive: -11.8%
CCc1nnc(NC(=O)c2ccc(S(=O)(=O)N3CCCc4ccccc43)cc2)o1	active: -64.4%
Cc1ccc(C(=O)N/C(=C\c2cccs2)C(=O)NCCc2ccccn2)cc1C	inconclusive: -43%
Cc1ncc(CN2CCN(C(C)C)C(CCO)C2)s1 (centres undefined)	inactive: 25.7%
COc1ccc(/C=C2\COc3ccccc3C2=O)cc1OC	inconclusive: -57.2%
CC(=O)N1CCc2cc(S(=O)(=O)NC(C)c3ccccc3)ccc21 (centres undefined)	inconclusive: -41.3%
Cc1nc(N2CCN(c3ccccn3)CC2)c2c(C)c(C(=O)Nc3ccc(Cl)cc3)sc2n1	inconclusive: -40.2%
CC1CCCN(c2ncnc3c2cnn3-c2ccc(F)cc2)C1 (centres undefined)	active: -80.2%
COc1ccc(/C=C(/NC(=O)c2ccc(Br)cc2)C(=O)N2CCOCC2)cc1	inactive: 19.5%
CC(=O)N1CCC(N(CCN2CCOCC2)C(=S)Nc2c(C)cccc2C)CC1	inconclusive: -53.6%
Cc1cc(OCCCC(=O)NC2=NCCS2)ccc1Cl	inactive: 17.7%
O=C(CSc1ncc2c(n1)-c1cc(Cl)ccc1N(Cc1ccccc1)S2(=O)=O)Nc1ccc(F)cc1F	active: -98.1%
Cn1c(O)c(N=NC(=O)CNC(=O)c2ccco2)c2ccccc21	inconclusive: -45.8%
O=C(Cn1[nH]c(=O)c2ccccc2c1=O)NCCN1C(=O)S/C(=C\c2ccccc2)C1=O	inactive: -0.222%
CN1CCN(C(=S)NC(=O)c2ccc(C(C)(C)C)cc2)CC1	inconclusive: -58.9%
